Test results from paper PMC3630842.
No constants are given. Whether binding was seen depends on the method and setting. Binding seen in cells or lysates may run through a third protein. Here binding means that the protein was enriched with, or labelled near, the bait; the list need not be complete.

Chains of the proteins cited; added tags and fusions are not shown. Lines headed by an entry give the natural chain unless they say otherwise; changes in a name come on top. A line that says so, or that is headed by a name, gives the form on record, which may keep a tag or linker. Residues count along the entry.
D1080N interphotoreceptor retinoid-binding protein (D1080N IRBP) (P10745, form named): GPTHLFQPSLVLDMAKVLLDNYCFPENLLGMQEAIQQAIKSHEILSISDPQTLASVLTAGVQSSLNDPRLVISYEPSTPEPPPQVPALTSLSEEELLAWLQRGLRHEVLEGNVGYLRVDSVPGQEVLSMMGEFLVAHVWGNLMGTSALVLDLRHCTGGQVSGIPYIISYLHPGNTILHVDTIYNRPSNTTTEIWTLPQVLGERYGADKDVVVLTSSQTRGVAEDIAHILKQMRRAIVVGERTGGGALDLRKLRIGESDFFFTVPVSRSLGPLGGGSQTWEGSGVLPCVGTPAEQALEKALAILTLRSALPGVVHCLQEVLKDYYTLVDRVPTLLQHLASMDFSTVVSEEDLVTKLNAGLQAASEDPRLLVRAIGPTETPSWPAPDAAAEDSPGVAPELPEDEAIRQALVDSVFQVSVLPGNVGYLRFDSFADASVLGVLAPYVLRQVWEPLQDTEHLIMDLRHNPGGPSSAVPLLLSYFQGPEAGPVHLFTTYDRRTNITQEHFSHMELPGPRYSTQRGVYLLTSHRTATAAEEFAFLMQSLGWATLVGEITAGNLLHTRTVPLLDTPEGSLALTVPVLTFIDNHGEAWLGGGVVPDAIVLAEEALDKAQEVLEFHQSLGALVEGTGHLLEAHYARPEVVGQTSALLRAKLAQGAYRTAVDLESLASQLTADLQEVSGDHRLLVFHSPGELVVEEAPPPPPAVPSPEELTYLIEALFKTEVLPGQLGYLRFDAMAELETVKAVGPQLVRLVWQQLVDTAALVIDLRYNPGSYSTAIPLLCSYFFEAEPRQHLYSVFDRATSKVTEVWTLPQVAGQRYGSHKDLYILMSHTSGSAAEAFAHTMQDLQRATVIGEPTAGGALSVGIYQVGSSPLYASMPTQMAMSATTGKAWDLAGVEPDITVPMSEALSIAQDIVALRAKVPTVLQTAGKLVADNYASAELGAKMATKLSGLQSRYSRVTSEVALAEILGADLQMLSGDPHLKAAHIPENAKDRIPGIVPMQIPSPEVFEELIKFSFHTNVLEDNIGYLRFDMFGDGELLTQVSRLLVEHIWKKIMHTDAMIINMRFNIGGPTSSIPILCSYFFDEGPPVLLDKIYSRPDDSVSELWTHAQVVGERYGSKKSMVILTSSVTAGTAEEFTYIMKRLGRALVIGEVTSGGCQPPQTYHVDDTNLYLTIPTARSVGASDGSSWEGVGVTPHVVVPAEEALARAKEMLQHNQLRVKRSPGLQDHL
UniProt P10809, residues 27-573: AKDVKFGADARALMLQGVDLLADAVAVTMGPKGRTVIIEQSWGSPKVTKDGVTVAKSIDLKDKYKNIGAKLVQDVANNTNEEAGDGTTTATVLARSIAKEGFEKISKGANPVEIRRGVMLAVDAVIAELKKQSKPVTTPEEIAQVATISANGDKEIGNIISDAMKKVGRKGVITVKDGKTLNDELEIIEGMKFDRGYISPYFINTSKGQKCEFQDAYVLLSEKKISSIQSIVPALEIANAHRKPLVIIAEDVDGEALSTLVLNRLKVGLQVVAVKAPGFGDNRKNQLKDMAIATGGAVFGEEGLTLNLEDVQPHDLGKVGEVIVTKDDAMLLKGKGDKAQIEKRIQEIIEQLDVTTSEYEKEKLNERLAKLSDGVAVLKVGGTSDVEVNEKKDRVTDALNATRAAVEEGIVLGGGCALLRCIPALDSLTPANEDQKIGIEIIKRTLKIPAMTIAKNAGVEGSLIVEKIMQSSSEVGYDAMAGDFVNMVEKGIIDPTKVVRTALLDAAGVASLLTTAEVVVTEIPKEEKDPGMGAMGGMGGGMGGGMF
UniProt P0DMV8: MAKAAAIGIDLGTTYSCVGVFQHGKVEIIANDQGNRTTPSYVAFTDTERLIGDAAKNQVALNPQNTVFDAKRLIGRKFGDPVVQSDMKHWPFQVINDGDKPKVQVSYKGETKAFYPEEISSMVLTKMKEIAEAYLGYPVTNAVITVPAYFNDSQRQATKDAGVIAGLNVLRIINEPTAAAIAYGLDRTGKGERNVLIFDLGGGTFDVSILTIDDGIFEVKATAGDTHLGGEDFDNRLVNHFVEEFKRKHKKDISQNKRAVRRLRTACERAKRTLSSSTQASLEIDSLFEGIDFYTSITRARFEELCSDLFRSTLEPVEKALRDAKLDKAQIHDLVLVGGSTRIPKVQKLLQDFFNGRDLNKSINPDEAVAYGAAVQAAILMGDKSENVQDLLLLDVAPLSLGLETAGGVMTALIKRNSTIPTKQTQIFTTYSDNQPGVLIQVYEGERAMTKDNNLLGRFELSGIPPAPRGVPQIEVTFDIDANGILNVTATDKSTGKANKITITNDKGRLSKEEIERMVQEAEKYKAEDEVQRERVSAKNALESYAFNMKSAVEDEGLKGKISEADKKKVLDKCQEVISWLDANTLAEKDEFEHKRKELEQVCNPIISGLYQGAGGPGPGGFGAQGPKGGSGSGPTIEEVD
UniProt P14625, residues 22-803: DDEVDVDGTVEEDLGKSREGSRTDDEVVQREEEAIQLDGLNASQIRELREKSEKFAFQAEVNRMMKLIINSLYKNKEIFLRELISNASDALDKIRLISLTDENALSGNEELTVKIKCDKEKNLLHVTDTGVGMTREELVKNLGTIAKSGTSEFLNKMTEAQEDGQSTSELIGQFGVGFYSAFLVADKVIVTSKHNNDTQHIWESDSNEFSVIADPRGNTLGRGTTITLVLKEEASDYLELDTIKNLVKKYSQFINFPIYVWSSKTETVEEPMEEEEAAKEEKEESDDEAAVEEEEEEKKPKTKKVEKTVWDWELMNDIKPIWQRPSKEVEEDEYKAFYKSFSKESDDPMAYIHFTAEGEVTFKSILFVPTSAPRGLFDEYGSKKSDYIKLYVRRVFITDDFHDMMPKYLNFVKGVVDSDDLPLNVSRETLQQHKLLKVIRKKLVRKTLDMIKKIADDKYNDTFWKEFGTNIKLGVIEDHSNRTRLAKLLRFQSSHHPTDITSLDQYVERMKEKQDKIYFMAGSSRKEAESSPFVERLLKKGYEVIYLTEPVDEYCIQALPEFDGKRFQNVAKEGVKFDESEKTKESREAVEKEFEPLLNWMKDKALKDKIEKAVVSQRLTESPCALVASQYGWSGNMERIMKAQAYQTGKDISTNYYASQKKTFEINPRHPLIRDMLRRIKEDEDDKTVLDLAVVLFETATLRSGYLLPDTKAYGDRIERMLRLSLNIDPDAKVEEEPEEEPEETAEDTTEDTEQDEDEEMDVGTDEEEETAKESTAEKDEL

Each substance was assayed against D1080N interphotoreceptor retinoid-binding protein (D1080N IRBP) (human) (UniProt P10745) (assay: affinity purification with mass spectrometry; 293T-LC cells expressing WT or D1080N IRBP; immunoprecipitation with an IRBP antibody, 10% SDS-PAGE, Coomassie-stained bands digested with trypsin and identified by LC-MS (Mascot, human SwissProt)).

binding, binds:
HSP60/chaperonin (from UniProt P10809 27-573), HSP70-1A (from UniProt P0DMV8 1-641), HSP-90β1/94-kDa glucose-regulated protein (Grp94) (from UniProt P14625 22-803)
